Source: article PMC3431329
No constants are given. Whether binding was seen depends on the method and setting. In cells and extracts the contact can be indirect. Here binding means that the protein was enriched with, or labelled near, the bait; the list need not be complete. Sequences can lack the tags named with a protein.

Sequences of proteins named here, by UniProt entry; tags and fusion partners are left off.
UniProt Q99459: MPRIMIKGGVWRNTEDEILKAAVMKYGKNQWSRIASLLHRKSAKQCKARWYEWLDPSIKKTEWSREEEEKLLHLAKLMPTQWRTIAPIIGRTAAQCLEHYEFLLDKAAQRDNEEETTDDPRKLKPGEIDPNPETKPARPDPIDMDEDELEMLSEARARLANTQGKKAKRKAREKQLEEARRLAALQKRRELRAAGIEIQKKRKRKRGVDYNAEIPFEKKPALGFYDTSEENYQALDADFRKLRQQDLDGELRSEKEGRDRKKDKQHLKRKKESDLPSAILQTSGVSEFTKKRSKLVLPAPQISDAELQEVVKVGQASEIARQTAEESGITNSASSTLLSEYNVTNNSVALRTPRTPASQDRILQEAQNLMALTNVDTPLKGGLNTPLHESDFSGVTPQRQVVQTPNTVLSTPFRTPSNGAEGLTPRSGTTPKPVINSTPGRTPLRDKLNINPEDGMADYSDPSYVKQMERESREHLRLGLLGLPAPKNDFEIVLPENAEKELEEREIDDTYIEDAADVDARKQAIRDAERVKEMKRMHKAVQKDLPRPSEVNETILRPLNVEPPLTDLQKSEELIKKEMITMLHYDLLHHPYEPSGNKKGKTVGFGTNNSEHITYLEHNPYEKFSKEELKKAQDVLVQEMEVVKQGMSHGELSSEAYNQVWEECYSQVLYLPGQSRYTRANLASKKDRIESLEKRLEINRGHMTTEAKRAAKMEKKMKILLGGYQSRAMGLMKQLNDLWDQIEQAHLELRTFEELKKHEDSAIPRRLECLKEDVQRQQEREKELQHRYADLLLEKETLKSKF

Molecular target: T1, human CCDC94 (coiled-coil domain containing 94), tagged bait (human) (UniProt Q9BW85)
T1 sequence: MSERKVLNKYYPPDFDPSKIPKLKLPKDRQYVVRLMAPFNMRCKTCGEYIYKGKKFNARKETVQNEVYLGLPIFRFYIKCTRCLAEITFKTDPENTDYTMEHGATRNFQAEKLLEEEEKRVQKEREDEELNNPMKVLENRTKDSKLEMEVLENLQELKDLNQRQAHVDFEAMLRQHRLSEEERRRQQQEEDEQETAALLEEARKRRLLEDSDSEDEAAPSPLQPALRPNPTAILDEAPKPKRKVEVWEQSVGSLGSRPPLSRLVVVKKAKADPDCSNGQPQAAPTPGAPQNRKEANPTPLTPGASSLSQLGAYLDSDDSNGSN
Assay: affinity purification with mass spectrometry; tandem-affinity purification (two rounds) of tagged human CCDC94 from detergent-solubilized 293T cell lines; trypsinized, LC-MS/MS

For CDC5L (from UniProt Q99459 1-802), the binding was “binds”.
